Some of the results follow. Further columns of the screen follow, without active or inactive calls. The list favours compounds with an active or inconclusive main result. Potencies come from curve fits of mixed quality, noted in brackets.
Assay: qHTS Assay to Find Inhibitors of Chronic Active B-Cell Receptor Signaling
Details: ABC-DLBCL IkBa-CBG/CBR reporter, luminescence ratio (green luciferase fused to IkBa over red control in TMD8 lymphoma cells), 4 h
Summary of the method: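 Concentration-response series (up to 46 uM) were applied to TMD8 dual-reporter cells for 4 h at 37C with doxycycline. Green/red ratio, after filter-overlap correction, defined %Activity; red signal alone was normalised to basal cells and zero luminescence.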

[1] = measured here: CBR red luminescence, cell number

| SMILES | AC50 [1] | AC50 (measured here: IkBa-CBG green luminescence) |
| --- | --- | --- |
| O=C(/C=C/c1ccc2c(c1)OCO2)Nc1nc2ccccc2s1 | 0.92 µM [falling, full curve, poor fit] |  |
| CCOc1cc(N2CCOCC2)c(OCC)cc1NCC(=O)N1CCN(Cc2ccccc2)CC1 | 3.55 µM [rising, single point] |  |
| Cc1cccc(Cn2c(CN3CCC(C(=O)NCCc4ccccc4)CC3)cc3ccccc32)c1 | 15.8 µM [falling, single point] |  |
| Cc1ccc(CSCC(=O)N2CCN(Cc3ccc4c(c3)OCO4)CC2)cc1 | 16.4 µM [falling, single point] |  |
| O=C(Nc1cccc2ccccc12)N1CCc2ccccc2C1 | 8.2 µM [falling, partial curve] |  |
| Cc1ccc(NS(=O)(=O)c2ccc(OCC(=O)Nc3cccc([N+](=O)[O-])c3)c(C)c2)cc1 | 12.6 µM [falling, partial curve, poor fit] |  |
| NC(=O)CS(=O)(=O)c1nc2ccccc2n1CC(=O)N1CCCCC1 | 29.1 µM [rising, single point] |  |
| COc1ccc(CCC(C)NCc2ccc(C(F)(F)F)cc2)cc1 (stereo not drawn) | 35.5 µM [falling, single point] | 35.5 µM [rising, partial curve, poor fit] |
| NC(=O)c1ccccc1NC(=O)/C=C/c1ccc(Cl)cc1 | 13 µM [falling, single point] |  |
| C/C(=N/NC(=O)c1sc(NS(=O)(=O)c2ccccc2)nc1C)c1ccc(F)cc1 | 7.31 µM [falling, partial curve, poor fit] |  |
| O=C(Nc1cc(-c2ccccc2)cs1)c1ccco1 | 16.4 µM [falling, single point] |  |
| CC(=O)c1cccc(CN2CCCCC2C(=O)Nc2ccc(Oc3ccccc3)nc2)c1 (stereo not drawn) | 2 µM [rising, partial curve] |  |
| COc1ccc(C2c3c(-c4ccccc4O)n[nH]c3C(=O)N2Cc2ccco2)cc1 (stereo not drawn) | 8.91 µM [falling, partial curve, poor fit] |  |
| CCOC(=O)N1CCN(C(=O)Nc2ccc3nc(C)c(C)nc3c2)CC1 | 11.2 µM [falling, partial curve] |  |
| Cc1cccc(NC(=O)CSc2cccc3cccnc23)c1 | 3.98 µM [falling, partial curve, poor fit] |  |
| COC(=O)c1cc(Nc2cc(C)nc3ncnn23)cc(C(=O)OC)c1 | 32.6 µM [rising, single point] |  |
| Cc1ccc(S(=O)(=O)N(CCCO)CC(O)CON=C2c3ccccc3-c3ccccc32)cc1 (stereo not drawn) | 29.1 µM [falling, single point] |  |

Part of the list above, with bars between the fields:
SMILES | AC50 [1] | AC50 (measured here: IkBa-CBG green luminescence)
O=C(/C=C/c1ccc2c(c1)OCO2)Nc1nc2ccccc2s1 | 0.92 µM [falling, full curve, poor fit] | 
CCOc1cc(N2CCOCC2)c(OCC)cc1NCC(=O)N1CCN(Cc2ccccc2)CC1 | 3.55 µM [rising, single point] | 
